# PubChem BioAssay AID445 (National Center for Advancing Translational Sciences (NCATS), 2006)
# The list shows a part of the results. Shown are side measurements of this screen, not its main read-out; they come without a call. The list favours compounds with an active or inconclusive main result. Words in brackets tell the shape of the fitted curve; partial curves, single points and poor fits give uncertain potencies.
# Test: IkB Signaling
# Conditions: ABC-DLBCL IkBa-CBG/CBR dual luciferase ratio (green luciferase fused to IkBa over red control in OCI-Ly3 lymphoma cells), 4 h
# Method in brief: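 Luminescence ratio of IκBα-fused green versus native red beetle luciferase in OCI-Ly3 cells, 4 h post-doxycycline with compound; red signal alone, scaled from basal (0%) to zero light (-100%), flagged nonspecific or cytotoxic effects.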
# [1] = measured here: control luc red channel unless noted
# [2] = measured here: IkB-luc green channel
# [3] = measured here: control luc red channel
structure (smiles),measurement,setting,value
Cc1cccc2cc(CN(Cc3ccco3)C(c3nnnn3CCc3ccccc3)C(C)C)c(=O)[nH]c12 (stereo not given),AC50,[1],"6.31 µM [falling, partial curve]"
C/C(N)=C(/C#N)C(=O)CSc1nc2cc(Cl)ccc2s1,AC50,[1],"39.8 µM [falling, single point]"
Cc1ccc(S(=O)(=O)NCCc2nnc3ccc(SCc4ccccc4F)nn23)cc1,AC50,[1],"15.8 µM [falling, partial curve]"
O=C1OC(O)C(C(Cl)Cl)=C1Cl (stereo not given),AC50,[2],"1.58 µM [rising, full curve]"
same,AC50,[3],"15.8 µM [falling, partial curve]"
COc1ccc(C)cc1NC(=O)c1cc2ccccc2o1,AC50,[1],"0.251 µM [rising, partial curve]"
Nc1nnc(SCc2ccc(F)cc2Cl)s1,AC50,[1],"12.6 µM [falling, partial curve]"
CCN(CC(=O)Nc1ccc2c(c1)CCC2)Cc1nc2ccccc2c(=O)[nH]1,AC50,[1],"31.6 µM [falling, partial curve]"
O=C(COc1ccccc1F)Nc1nnc(SCc2cc(=O)n3ccccc3n2)s1,AC50,[1],"31.6 µM [falling, single point]"
COc1ccc(CCNC(=O)c2ccc3c(c2)N(Cc2ccccc2Cl)C(=O)c2ccccc2S3)cc1OC,AC50,[1],"6.31 µM [rising, single point]"
Cc1csc(NC(=O)CSc2nnc(Cc3cccn3C)n2CCc2ccccc2)n1,AC50,[2],"12.6 µM [falling, partial curve]"
same,AC50,[3],"15.8 µM [falling, partial curve]"
COc1ccc(-c2cccc(NS(=O)(=O)c3cc(C(F)(F)F)ccc3Cl)c2)nn1,AC50,[1],"31.6 µM [falling, single point]"
COc1ccc(-n2cc(-c3ccccc3)c3c(N4CCCC(C)C4)ncnc32)cc1 (stereo not given),AC50,[1],"25.1 µM [falling, single point]"
CCc1nc2ccc(C(=O)NCc3ccccc3C)cc2nc1CC,AC50,[1],"20 µM [falling, partial curve]"
COc1ccc(C(=O)NCCc2csc(-c3ccc(Cl)cc3)n2)cc1,AC50,[1],"31.6 µM [falling, single point]"
CCC(Oc1ccc(F)cc1)C(=O)Nc1nc2c(s1)CCCC2 (stereo not given),AC50,[1],"31.6 µM [falling, partial curve]"
COc1ccc(N2CC(C)Cn3c2nc2c3c(=O)n(Cc3ccccc3F)c(=O)n2C)c(OC)c1 (stereo not given),AC50,[1],"12.6 µM [falling, partial curve]"
C=C(C)Cn1c(N2CCN(CC)CC2)nc2c1c(=O)[nH]c(=O)n2C,AC50,[1],"20 µM [rising, partial curve] [measured here: IkB-luc green channel]"
O=C(Nc1ccc(F)cc1)c1oc2ccccc2c1NC(=O)C1CCCCC1,AC50,[1],"12.6 µM [falling, partial curve]"
Cc1cccc(N2CCN(C(=O)C(C)n3nc(C)n4c(cc5occc54)c3=O)CC2)c1C (stereo not given),AC50,[1],"25.1 µM [falling, single point]"
CCc1ccc(CNC(=O)Cn2nc(-c3ccc(Cl)cc3)ccc2=O)cc1,AC50,[1],"10 µM [falling, partial curve]"
CCN(CC)S(=O)(=O)c1ccc(-c2csc(=Nc3cccc(C(F)(F)F)c3)n2Cc2ccc3c(c2)OCO3)cc1,AC50,[1],"25.1 µM [falling, single point]"
O=c1c(O)c(-c2ccc(O)c(O)c2)oc2cc(O)cc(O)c12,AC50,[2],"31.6 µM [falling, partial curve, poor fit]"
same,AC50,[3],"15.8 µM [falling, partial curve, poor fit]"
Cc1ccc(S(=O)(=O)N2CCCc3cc(NS(=O)(=O)c4ccc(F)cc4)ccc32)cc1,AC50,[1],"25.1 µM [falling, single point]"
COc1cccc(NC(=O)Cn2c(=O)n(Cc3ccc(C(=O)NCc4ccc5c(c4)OCO5)cc3)c(=O)c3ccccc32)c1,AC50,[1],"10 µM [falling, partial curve]"
O=C(Cn1nnc(-c2ccccc2NC(=O)c2cccs2)n1)Nc1ccccc1,AC50,[1],"15.8 µM [falling, partial curve]"
CN(C)c1ccc(CNC(=O)C2CCN(S(=O)(=O)c3ccc4c(c3)oc(=O)n4C)CC2)cc1,AC50,[1],"39.8 µM [falling, single point]"
O=C(Nc1nccs1)c1ccc(Cl)c(S(=O)(=O)N2CCOCC2)c1,AC50,[1],"25.1 µM [falling, single point]"
COc1ccccc1C(=O)N(c1ccc(C)cc1)S(=O)(=O)c1ccc(Cl)cc1,AC50,[1],"3.16 µM [falling, full curve]"
Cc1ccc(CNc2nc3ccccc3n3cnnc23)cc1,AC50,[1],"1 µM [rising, full curve]"
Cc1csc2nc(COC(=O)c3ccc(NC(=O)C(C)Oc4ccccc4)cc3)cc(=O)n12 (stereo not given),AC50,[1],"31.6 µM [falling, single point]"
COc1ccc(NC(=O)c2cnc(N3CCCC3)nc2)cc1OC,AC50,[1],"39.8 µM [falling, single point]"
CCCC1=Nc2cc(C(=O)N3CCC(C(=O)OCC)CC3)ccc2Sc2ccccc21,AC50,[1],"25.1 µM [falling, partial curve]"
O=S(=O)(Nc1ccc2c(c1)OCCO2)c1ccc(Br)s1,AC50,[1],"15.8 µM [falling, partial curve]"
Cc1cc(C)n(CC(O)COc2ccccc2C(=O)Nc2ccccc2)n1 (stereo not given),AC50,[1],"15.8 µM [falling, partial curve]"
O=C(C1CCCN(S(=O)(=O)c2cccc3nsnc23)C1)N1CCN(c2cccc(Cl)c2)CC1 (stereo not given),AC50,[1],"10 µM [falling, partial curve]"
CC(=O)c1cccc(NC(=O)c2c(F)c(F)c(F)c(F)c2F)c1,AC50,[1],"3.98 µM [falling, partial curve]"
Cc1ccc2nc(-c3ccccn3)c(Nc3ccccc3C)n2c1,AC50,[1],"39.8 µM [falling, single point]"
CC(C)c1ccc2oc(-c3cc(N)ccc3O)nc2c1,AC50,[1],"0.158 µM [falling, full curve]"
CCc1cccc(C)c1NS(=O)(=O)c1ccc2c(c1)CC(C)N2C(=O)C1CC1 (stereo not given),AC50,[1],"15.8 µM [falling, partial curve]"
Cc1ccc2c(CC(=O)OC3CCOC3=O)coc2c1 (stereo not given),AC50,[1],"5.01 µM [falling, partial curve]"
COc1ccc(-c2noc(CSc3nc4ccccc4[nH]3)n2)cc1OC,AC50,[1],"2 µM [rising, partial curve]"
O=C(Nc1cccc(-c2cn3cccnc3n2)c1)c1ccc2c(c1)OCO2,AC50,[1],"20 µM [falling, partial curve]"
O=S(=O)(Nc1ncnc2sc3c(c12)CCC3)c1ccc(Cl)s1,AC50,[1],"15.8 µM [falling, partial curve]"
CCN1C(=O)C(O)(c2c[nH]c3ccccc23)c2cc(Br)ccc21 (stereo not given),AC50,[1],"31.6 µM [falling, single point]"
Cc1cccc(Cn2c(=O)n(-c3ccccc3C)c(=O)c3c2c2cc(C)ccc2n3C)c1,AC50,[1],"10 µM [falling, partial curve]"
Cc1ccc(CCNC(=O)C2CCN(S(=O)(=O)c3ccc4c(ccn4C)c3)CC2)cc1,AC50,[1],"0.01 µM [falling, full curve, poor fit]"
Cn1cc(S(=O)(=O)CC(=O)Nc2ccc3c(c2)OCO3)c2ccccc21,AC50,[1],"3.98 µM [falling, partial curve]"
Cc1ccc(CNC(=O)CSc2nc3ccccc3nc2Cc2ccc(C)cc2)cc1,AC50,[1],"39.8 µM [rising, single point]"
O=C(/C=C/Nc1cccc(O)c1)c1ccccc1,AC50,[1],"5.01 µM [falling, partial curve]"
Cc1cccc(-c2nc3c(cnn3-c3ccccc3)c(=O)n2-c2ccc(Cl)cc2)c1,AC50,[1],"3.16 µM [rising, partial curve]"
COc1ccc(NC(=O)CSc2nc(C)cc(C)c2C(=O)Nc2ccccc2OC)cc1,AC50,[1],"6.31 µM [falling, partial curve]"
Cc1cc2cc(C(c3nnnn3Cc3ccco3)N3CCc4ccccc4C3)c(=O)[nH]c2cc1C (stereo not given),AC50,[1],"12.6 µM [falling, partial curve]"
O=C(CCSCc1cccc(Cl)c1)NCCc1ccc(Cl)cc1,AC50,[1],"39.8 µM [falling, partial curve]"
CCOC(=O)C1CCCN(C(=O)c2cc3c(C)nc4ccccc4c3o2)C1 (stereo not given),AC50,[1],"15.8 µM [falling, single point]"
COc1ccc(-n2c(SCC(=O)NCc3ccc(F)cc3)nc3c([nH]c4ccccc43)c2=O)cc1,AC50,[1],"1 µM [rising, full curve]"
Cc1oc(-c2ccc(Cl)cc2)nc1Cn1c(=O)cc(C)c2c(C)nn(-c3ccccc3)c21,AC50,[1],"3.98 µM [falling, full curve, poor fit]"
O=C(NCCc1ccc(Cl)cc1)C1CCN(S(=O)(=O)c2ccc3[nH]ccc3c2)CC1,AC50,[1],"12.6 µM [falling, partial curve]"
CCOC(=O)c1c(C)oc2nc(C)nc(NCCCN3CCN(c4cc(C)ccc4C)CC3)c12,AC50,[1],"39.8 µM [falling, single point]"
CC(C)c1ccc(Nc2c(-c3ccccn3)nc3ccccn23)cc1,AC50,[1],"25.1 µM [falling, single point]"
COc1ccc(-c2nc(CSCC(=O)NCc3ccccc3Cl)c(C)o2)cc1OC,AC50,[1],"12.6 µM [falling, partial curve]"
COC(=O)C1=C(Cn2cnc3ccccc32)NC(=O)NC1c1cc(C)ccc1C (stereo not given),AC50,[1],"7.94 µM [falling, partial curve]"
Cc1cc(C)c(Cn2c(=O)n(CCCC(=O)NCc3ccc4c(c3)OCO4)c(=O)c3sccc32)c(C)c1,AC50,[1],"39.8 µM [rising, single point] [measured here: IkB-luc green channel]"

# Laid out differently: entries from further up.
structure (smiles)	measurement	setting	value
COc1ccc(CCNC(=O)c2ccc3c(c2)N(Cc2ccccc2Cl)C(=O)c2ccccc2S3)cc1OC	AC50	[1]	6.31 µM [rising, single point]
Cc1csc(NC(=O)CSc2nnc(Cc3cccn3C)n2CCc2ccccc2)n1	AC50	[2]	12.6 µM [falling, partial curve]
same	AC50	[3]	15.8 µM [falling, partial curve]
COc1ccc(-c2cccc(NS(=O)(=O)c3cc(C(F)(F)F)ccc3Cl)c2)nn1	AC50	[1]	31.6 µM [falling, single point]
C=C(C)Cn1c(N2CCN(CC)CC2)nc2c1c(=O)[nH]c(=O)n2C	AC50	[1]	20 µM [rising, partial curve] [measured here: IkB-luc green channel]
O=C(Nc1ccc(F)cc1)c1oc2ccccc2c1NC(=O)C1CCCCC1	AC50	[1]	12.6 µM [falling, partial curve]
Cc1cccc(N2CCN(C(=O)C(C)n3nc(C)n4c(cc5occc54)c3=O)CC2)c1C (stereo not given)	AC50	[1]	25.1 µM [falling, single point]
Cc1ccc(S(=O)(=O)N2CCCc3cc(NS(=O)(=O)c4ccc(F)cc4)ccc32)cc1	AC50	[1]	25.1 µM [falling, single point]
Cc1ccc(CNc2nc3ccccc3n3cnnc23)cc1	AC50	[1]	1 µM [rising, full curve]
O=C(C1CCCN(S(=O)(=O)c2cccc3nsnc23)C1)N1CCN(c2cccc(Cl)c2)CC1 (stereo not given)	AC50	[1]	10 µM [falling, partial curve]
Cc1ccc2nc(-c3ccccn3)c(Nc3ccccc3C)n2c1	AC50	[1]	39.8 µM [falling, single point]
Cc1ccc(CCNC(=O)C2CCN(S(=O)(=O)c3ccc4c(ccn4C)c3)CC2)cc1	AC50	[1]	0.01 µM [falling, full curve, poor fit]
O=C(/C=C/Nc1cccc(O)c1)c1ccccc1	AC50	[1]	5.01 µM [falling, partial curve]
Cc1cc2cc(C(c3nnnn3Cc3ccco3)N3CCc4ccccc4C3)c(=O)[nH]c2cc1C (stereo not given)	AC50	[1]	12.6 µM [falling, partial curve]
CCOC(=O)c1c(C)oc2nc(C)nc(NCCCN3CCN(c4cc(C)ccc4C)CC3)c12	AC50	[1]	39.8 µM [falling, single point]
CC(C)c1ccc(Nc2c(-c3ccccn3)nc3ccccn23)cc1	AC50	[1]	25.1 µM [falling, single point]
COc1ccc(-c2nc(CSCC(=O)NCc3ccccc3Cl)c(C)o2)cc1OC	AC50	[1]	12.6 µM [falling, partial curve]
